Among the data in PMC6733924 are binding values, retold here.

By UniProt entry, the sequences of proteins in these tests, tags left out. Where a name states a change or a piece, a line headed by the entry shows the natural chain unless it says otherwise.
UniProt Q7Z2W7: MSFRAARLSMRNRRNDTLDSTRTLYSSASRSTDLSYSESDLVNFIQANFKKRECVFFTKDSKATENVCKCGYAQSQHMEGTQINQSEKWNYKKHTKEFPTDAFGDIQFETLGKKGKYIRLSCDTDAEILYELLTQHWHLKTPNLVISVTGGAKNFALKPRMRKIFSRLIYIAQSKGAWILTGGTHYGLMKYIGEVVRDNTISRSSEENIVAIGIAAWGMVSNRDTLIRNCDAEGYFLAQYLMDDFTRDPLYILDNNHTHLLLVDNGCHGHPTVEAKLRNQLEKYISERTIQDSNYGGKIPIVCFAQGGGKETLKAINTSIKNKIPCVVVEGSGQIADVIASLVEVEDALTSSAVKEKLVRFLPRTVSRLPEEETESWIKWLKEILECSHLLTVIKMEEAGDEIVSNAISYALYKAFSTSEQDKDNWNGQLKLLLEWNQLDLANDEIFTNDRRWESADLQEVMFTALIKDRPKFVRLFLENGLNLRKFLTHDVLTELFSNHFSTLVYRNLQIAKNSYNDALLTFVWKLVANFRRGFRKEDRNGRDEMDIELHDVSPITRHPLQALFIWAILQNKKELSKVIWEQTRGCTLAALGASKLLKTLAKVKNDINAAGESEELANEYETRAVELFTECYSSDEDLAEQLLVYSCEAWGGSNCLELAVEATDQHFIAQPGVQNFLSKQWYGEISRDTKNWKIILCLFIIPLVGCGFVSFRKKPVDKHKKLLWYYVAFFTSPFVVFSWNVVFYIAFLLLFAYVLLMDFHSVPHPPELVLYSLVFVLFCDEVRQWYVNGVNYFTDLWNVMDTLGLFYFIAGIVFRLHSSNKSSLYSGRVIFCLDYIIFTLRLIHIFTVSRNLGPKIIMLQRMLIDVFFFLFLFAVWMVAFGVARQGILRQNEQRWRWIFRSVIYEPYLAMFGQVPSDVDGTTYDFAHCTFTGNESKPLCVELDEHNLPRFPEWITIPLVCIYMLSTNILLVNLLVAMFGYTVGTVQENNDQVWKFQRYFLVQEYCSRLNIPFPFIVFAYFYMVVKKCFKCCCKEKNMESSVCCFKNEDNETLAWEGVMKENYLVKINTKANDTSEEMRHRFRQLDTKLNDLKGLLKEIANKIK
UniProt P10275: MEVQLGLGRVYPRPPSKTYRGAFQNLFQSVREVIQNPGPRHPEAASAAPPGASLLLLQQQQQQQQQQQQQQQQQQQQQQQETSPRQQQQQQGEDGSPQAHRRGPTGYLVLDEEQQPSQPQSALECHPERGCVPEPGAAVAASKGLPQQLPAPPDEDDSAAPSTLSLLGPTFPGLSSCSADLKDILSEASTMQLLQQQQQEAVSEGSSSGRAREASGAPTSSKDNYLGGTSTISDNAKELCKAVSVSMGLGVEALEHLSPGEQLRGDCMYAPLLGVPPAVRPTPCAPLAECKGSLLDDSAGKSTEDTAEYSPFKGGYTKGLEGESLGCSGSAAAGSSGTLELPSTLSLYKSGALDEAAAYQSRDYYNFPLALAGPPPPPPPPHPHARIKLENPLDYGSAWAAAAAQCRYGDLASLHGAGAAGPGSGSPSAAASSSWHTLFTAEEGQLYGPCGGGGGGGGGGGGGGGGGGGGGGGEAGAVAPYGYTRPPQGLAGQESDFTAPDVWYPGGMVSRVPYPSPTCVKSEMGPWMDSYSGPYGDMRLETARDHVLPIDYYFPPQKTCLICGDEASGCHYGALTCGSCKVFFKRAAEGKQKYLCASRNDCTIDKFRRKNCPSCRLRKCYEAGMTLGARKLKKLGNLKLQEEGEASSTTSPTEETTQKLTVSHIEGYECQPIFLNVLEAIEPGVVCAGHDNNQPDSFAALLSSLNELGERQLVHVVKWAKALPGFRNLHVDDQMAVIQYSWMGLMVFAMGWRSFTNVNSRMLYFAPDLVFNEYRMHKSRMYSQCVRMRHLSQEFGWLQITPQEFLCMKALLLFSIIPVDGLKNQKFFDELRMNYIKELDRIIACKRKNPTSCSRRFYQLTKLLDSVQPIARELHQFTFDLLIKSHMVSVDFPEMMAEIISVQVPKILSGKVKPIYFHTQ

The assay addresses full-length his-tagged TRPM8 (UniProt Q7Z2W7). As to the kind of experiment: co-IP; PC3-TRPM8 cells transfected with peGFP-AR (wild-type, 23 or Q640X); lysate (1% Triton X-100, 1% sodium deoxycholate, 150 mM NaCl) incubated overnight at 4 °C with His-tag beads in IP buffer (20 mM NaH2PO4, 150 mM NaCl, pH 8); AR detected with anti-GFP; cells treated with vehicle or 1, 10, 100 nM testosterone for 20 min (wild type: decrease by 58.2%-68.4% at 10-100 nM).

These are yes or no findings as the source states them, for the method shown. In cells and extracts the contact can be indirect. Binding can be weak; no strength is given.

On to “cytosolic AR mutant AR23-GFP (from UniProt P10275)”, for which the binding entry is “binds”.
